# Data source: PubChem BioAssay AID1224831 (NIAID, 2016)
# Aim: 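Confirming genome-wide hits on LPS-triggered TNF-alpha induction with independent siRNA sequences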 (follow-up of hits)
# Cells: human THP-1 B5 monocytic leukaemia cells carrying a TNF promoter luciferase reporter, made macrophage-like with PMA
# Reagent: single siRNA against human genes, 50 nM
# Time to read-out: about 68 h of knock-down, then 4 h LPS
# Conditions: LPS (Salmonella minnesota, TLR-grade) at 10 ng/ml for 4 h; PMA 5 ng/ml present during knock-down
# Read-out: 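Firefly to renilla luciferase ratio of a TNF promoter reporter after 4 h LPS, scaled to plate median, turned into robust z-score, averaged over replicates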
# Scale: TNF reporter z-score: higher = stronger LPS-induced TNF reporter signal; z-score, median over gene's siRNAs: higher = stronger TNF reporter signal across the gene's siRNAs
# Hit rule: 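Two-sided call: reduced or raised TNF reporter signal counts as active once mean z reaches about -1 or below, or about 1.5 or above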
# Calls: active = changed TNF reporter (either direction); inactive = little change
# Shown is a random part of about 3,500 reagents tested. 731 of them (21%) were called active. 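Active means either lowered or raised reporter signal; the gene-median score did not drive the per-siRNA calls.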 A number with no mark means an inactive call. Reagents against one gene are numbered here.
Gene,reagent,"TNF reporter z-score, replicate mean","z-score, median over gene's siRNAs"
NEU3,1,0.85,0.33
NEU3,2,-0.45,0.33
NEU3,3,-0.82,0.33
NEU3,4,-0.17,0.33
NEU3,5,0.83,0.33
NEU3,6,0.99,0.33
ATF1,1,0,-0.415
ATF1,2,-0.48,-0.415
ATF1,3,-0.4,-0.415
ATF1,4,-1.31 (active),-0.415
ATF1,5,-0.25,-0.415
ATF1,6,-0.43,-0.415
TNFRSF10B,1,1.11,0.665
TNFRSF10B,2,0.37,0.665
TNFRSF10B,3,0.96,0.665
TNFRSF10B,4,-0.76,0.665
TNFRSF10B,5,-0.25,0.665
TNFRSF10B,6,2.43 (active),0.665
IL4I1,1,0.85,0.35
IL4I1,2,1.16,0.35
IL4I1,3,3.15 (active),0.35
IL4I1,4,-0.64,0.35
IL4I1,5,-1.3 (active),0.35
IL4I1,6,-0.15,0.35
IFNLR1,1,1.39,0.95
IFNLR1,2,1.89 (active),0.95
IFNLR1,3,0.51,0.95
IFNLR1,4,-0.42,0.95
IFNLR1,5,2.07 (active),0.95
IFNLR1,6,-0.51,0.95
PLXDC1,1,-0.36,-0.015
PLXDC1,2,0.68,-0.015
PLXDC1,3,-1.27 (active),-0.015
PLXDC1,4,-0.88,-0.015
PLXDC1,5,0.55,-0.015
PLXDC1,6,0.33,-0.015
PSMD7,1,-0.2,-0.27
PSMD7,2,-0.17,-0.27
PSMD7,3,-0.34,-0.27
PSMD7,4,-1.81 (active),-0.27
PSMD7,5,-0.64,-0.27
PSMD7,6,0.23,-0.27

Ordered by “TNF reporter z-score, replicate mean” (highest first): 9 of the entries above.
Gene,reagent,"TNF reporter z-score, replicate mean","z-score, median over gene's siRNAs"
IL4I1,3,3.15 (active),0.35
TNFRSF10B,6,2.43 (active),0.665
IFNLR1,1,1.39,0.95
IL4I1,2,1.16,0.35
IL4I1,1,0.85,0.35
IL4I1,6,-0.15,0.35
TNFRSF10B,5,-0.25,0.665
IL4I1,4,-0.64,0.35
IL4I1,5,-1.3 (active),0.35

Further reagents:
Gene,reagent,"TNF reporter z-score, replicate mean","z-score, median over gene's siRNAs"
CHD3,1,1.03,0.54
CHD3,2,0.1,0.54
CHD3,3,0.55,0.54
CHD3,4,0.53,0.54
CHD3,5,0.1,0.54
CHD3,6,0.72,0.54
FBXO21,1,0.4,0.325
FBXO21,2,0.09,0.325
FBXO21,3,0.25,0.325
FBXO21,4,0.71,0.325
FBXO21,5,-0.02,0.325
FBXO21,6,2.22 (active),0.325
ZDHHC1,1,-0.12,-0.005
ZDHHC1,2,0.9,-0.005
ZDHHC1,3,-0.46,-0.005
ZDHHC1,4,0.74,-0.005
ZDHHC1,5,0.11,-0.005
ZDHHC1,6,-0.35,-0.005
GRIP2,1,3.27 (active),0.06
GRIP2,2,-0.86,0.06
GRIP2,3,0.2,0.06
GRIP2,4,3.59 (active),0.06
GRIP2,5,-0.88,0.06
GRIP2,6,-0.08,0.06
PRND,1,0.93,0.89
PRND,2,-0.31,0.89
PRND,3,0.85,0.89
PRND,4,1.84 (active),0.89
PRND,5,-2.05 (active),0.89
PRND,6,1.61 (active),0.89
PSMD8,1,-0.9,-1.05
PSMD8,2,-1.39 (active),-1.05
PSMD8,3,-1.89 (active),-1.05
PSMD8,4,0.37,-1.05
PSMD8,5,-1.21 (active),-1.05
PSMD8,6,-0.83,-1.05
PRKG1,1,0.89,-0.25
PRKG1,2,0.25,-0.25
PRKG1,3,-0.98,-0.25
PRKG1,4,-0.75,-0.25
PRKG1,5,-1.51 (active),-0.25
PRKG1,6,1.16,-0.25
